Test results as given in ChEMBL document CHEMBL5210121, “Affinity On-target Cellular Literature for EUbOPEN Chemogenomics Library wave 3” (2023).

Target: T1, Tyrosine-protein kinase JAK3 (Homo sapiens, UniProt P52333)
T1 sequence (P52333 whole entry): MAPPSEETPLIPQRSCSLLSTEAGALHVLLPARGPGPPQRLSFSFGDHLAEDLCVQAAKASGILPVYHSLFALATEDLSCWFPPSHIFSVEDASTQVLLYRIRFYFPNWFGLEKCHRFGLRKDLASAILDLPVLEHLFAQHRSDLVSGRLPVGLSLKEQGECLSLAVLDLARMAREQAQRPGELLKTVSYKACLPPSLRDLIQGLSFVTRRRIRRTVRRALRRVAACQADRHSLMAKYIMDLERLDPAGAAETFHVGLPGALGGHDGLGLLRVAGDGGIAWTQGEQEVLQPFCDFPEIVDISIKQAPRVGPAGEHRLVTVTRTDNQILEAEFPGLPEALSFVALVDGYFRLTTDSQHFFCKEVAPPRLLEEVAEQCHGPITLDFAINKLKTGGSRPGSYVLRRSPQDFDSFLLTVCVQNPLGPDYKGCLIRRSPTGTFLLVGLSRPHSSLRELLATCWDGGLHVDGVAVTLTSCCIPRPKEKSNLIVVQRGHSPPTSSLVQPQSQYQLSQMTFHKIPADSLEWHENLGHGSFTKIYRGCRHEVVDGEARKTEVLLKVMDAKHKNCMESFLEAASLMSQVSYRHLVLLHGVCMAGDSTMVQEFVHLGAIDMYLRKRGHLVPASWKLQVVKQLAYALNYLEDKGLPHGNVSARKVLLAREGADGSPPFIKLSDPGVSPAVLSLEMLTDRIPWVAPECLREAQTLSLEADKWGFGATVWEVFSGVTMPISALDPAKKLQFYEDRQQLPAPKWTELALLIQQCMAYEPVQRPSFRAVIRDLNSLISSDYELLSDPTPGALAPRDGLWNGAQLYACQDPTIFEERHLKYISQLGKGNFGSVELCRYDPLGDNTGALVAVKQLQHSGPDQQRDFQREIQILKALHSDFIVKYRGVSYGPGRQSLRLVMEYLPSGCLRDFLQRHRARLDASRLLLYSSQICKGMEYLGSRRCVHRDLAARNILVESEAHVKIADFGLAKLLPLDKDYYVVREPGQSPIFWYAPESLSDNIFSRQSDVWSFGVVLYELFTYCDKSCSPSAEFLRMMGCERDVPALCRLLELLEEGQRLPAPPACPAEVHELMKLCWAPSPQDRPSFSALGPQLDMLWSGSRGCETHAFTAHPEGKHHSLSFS

CN(C)C(=O)/C(C#N)=C/c1ccc(-c2nc3cnc4[nH]ccc4c3n2C2CCCCC2)o1
IC50: 0.1 µM
